Experimental data as given in article PMC8358030.
No constants are given. Whether binding was seen depends on the method and setting. Binding seen in cells or lysates may run through a third protein. Some binding calls cover weakened binding; strength is not graded here.

Sequences of proteins named here, by UniProt entry; tags and fusion partners are left off. A change or cut given only in a name is not applied to a line headed by its entry. A line that says so, or that is headed by a name, gives the form on record, which may keep a tag or linker. Residues count along the entry.
UniProt P53667: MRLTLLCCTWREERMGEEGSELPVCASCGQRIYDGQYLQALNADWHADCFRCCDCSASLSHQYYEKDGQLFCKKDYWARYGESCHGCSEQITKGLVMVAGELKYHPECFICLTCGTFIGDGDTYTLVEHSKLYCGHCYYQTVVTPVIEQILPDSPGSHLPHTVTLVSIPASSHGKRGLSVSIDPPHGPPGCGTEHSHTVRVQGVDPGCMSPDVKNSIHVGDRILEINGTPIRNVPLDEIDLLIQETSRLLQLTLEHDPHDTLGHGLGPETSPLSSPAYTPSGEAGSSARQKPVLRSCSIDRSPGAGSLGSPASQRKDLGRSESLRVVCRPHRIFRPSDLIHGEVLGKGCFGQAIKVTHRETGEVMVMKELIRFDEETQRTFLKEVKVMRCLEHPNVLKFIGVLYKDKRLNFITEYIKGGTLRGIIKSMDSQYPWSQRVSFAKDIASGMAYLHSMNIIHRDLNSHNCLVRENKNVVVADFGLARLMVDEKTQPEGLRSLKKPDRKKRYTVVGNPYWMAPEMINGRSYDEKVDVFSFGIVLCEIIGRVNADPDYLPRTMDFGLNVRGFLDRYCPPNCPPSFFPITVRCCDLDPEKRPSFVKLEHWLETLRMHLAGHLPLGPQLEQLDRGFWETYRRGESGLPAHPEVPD
DYK-tagged-∆CAPN2 (1–447) (P17655, residues 1-447): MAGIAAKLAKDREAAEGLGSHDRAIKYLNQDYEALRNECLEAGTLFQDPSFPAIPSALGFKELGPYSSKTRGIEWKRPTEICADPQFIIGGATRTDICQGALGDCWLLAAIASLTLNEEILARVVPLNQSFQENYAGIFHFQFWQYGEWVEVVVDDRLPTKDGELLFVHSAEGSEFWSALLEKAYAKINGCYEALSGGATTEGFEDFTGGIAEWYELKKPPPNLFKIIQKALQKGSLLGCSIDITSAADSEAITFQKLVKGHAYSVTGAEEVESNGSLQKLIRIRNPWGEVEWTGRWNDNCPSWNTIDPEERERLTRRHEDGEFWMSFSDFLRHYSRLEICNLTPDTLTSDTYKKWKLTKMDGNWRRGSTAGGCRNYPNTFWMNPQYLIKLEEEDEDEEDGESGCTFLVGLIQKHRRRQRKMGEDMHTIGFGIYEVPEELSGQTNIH
DYK-tagged full-length CAPN2 (P17655, residues 20-700): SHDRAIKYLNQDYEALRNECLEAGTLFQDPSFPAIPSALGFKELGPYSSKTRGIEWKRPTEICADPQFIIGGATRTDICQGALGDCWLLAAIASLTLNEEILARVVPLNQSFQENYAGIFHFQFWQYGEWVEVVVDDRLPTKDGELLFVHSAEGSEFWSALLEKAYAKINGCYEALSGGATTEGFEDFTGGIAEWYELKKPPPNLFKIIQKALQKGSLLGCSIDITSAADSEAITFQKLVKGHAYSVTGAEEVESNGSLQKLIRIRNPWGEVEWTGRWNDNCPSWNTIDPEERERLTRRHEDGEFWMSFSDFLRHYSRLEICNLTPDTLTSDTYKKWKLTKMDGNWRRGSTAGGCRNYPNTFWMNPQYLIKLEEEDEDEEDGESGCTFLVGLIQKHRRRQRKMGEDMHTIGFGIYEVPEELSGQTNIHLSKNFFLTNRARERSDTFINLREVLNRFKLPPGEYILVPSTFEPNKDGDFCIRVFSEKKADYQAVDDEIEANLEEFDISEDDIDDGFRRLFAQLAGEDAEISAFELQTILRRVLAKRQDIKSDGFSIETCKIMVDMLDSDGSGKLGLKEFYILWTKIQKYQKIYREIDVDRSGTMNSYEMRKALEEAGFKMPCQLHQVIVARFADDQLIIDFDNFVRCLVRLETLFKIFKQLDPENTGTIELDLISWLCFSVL

How the values were obtained:
[1] = molecular target: LIM Kinase-1 (LIMK1), endogenous in MDA-MB-231 cells (human (endogenous in MDA-MB-231)) (UniProt P53667); test: co-IP; whole extracts (RIPA) of MDA-MB-231 cells transfected with scRNA (control); anti-Ct-LIMK1 on Dynabeads protein G, 200 μg extract; western blot with anti-CAPN2 and anti-CFL1
[2] = molecular target: LIM Kinase-1 (LIMK1), endogenous in MCF-7 cells (human (endogenous in MCF-7)) (UniProt P53667); test: co-IP; protein extracts (RIPA) of MCF-7 cells overexpressing DYK-CAPN2 or DYK-∆CAPN2 for 48 h; anti-Ct-LIMK1 on Dynabeads protein G; western blot with anti-CAPN2

Row | binding [1] | binding [2] | Substance
1 | binds | – | Calpain-2 (CAPN2), endogenous in MDA-MB-231 cells (from UniProt P17655-1 20-700) (enzyme)
2 | – | binds | DYK-tagged full-length CAPN2 (from UniProt P17655-1 20-700) (enzyme)
3 | – | no binding | DYK-tagged-∆CAPN2 (1–447) (from UniProt P17655-1 1-447) (domain or fragment)
